Laboratory results from the supplement of paper PMC10849652.
This is one part of the list.

Sequences of proteins named here, by UniProt entry; tags and fusion partners are left off. A change or cut given only in a name is not applied to a line headed by its entry.
UniProt P51970, whole entry, looked up: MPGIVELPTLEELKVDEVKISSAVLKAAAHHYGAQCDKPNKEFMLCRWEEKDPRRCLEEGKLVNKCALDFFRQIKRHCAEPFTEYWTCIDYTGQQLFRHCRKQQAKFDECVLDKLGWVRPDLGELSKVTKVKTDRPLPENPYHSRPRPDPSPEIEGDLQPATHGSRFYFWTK
UniProt Q13564: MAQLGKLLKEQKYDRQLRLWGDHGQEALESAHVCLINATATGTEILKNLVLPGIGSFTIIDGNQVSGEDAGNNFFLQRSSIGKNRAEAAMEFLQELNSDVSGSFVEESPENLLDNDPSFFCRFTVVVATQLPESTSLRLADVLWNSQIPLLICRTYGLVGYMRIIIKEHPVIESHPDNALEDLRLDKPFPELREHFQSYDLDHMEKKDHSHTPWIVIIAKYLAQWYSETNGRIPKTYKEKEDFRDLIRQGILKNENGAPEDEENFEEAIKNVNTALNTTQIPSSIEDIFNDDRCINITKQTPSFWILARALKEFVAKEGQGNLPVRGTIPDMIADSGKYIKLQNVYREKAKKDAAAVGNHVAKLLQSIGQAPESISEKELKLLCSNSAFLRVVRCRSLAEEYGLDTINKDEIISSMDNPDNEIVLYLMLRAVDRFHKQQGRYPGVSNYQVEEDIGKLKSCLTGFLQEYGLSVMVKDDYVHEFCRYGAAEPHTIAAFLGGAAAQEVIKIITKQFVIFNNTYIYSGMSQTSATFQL
UniProt Q8NHV4, whole entry, looked up: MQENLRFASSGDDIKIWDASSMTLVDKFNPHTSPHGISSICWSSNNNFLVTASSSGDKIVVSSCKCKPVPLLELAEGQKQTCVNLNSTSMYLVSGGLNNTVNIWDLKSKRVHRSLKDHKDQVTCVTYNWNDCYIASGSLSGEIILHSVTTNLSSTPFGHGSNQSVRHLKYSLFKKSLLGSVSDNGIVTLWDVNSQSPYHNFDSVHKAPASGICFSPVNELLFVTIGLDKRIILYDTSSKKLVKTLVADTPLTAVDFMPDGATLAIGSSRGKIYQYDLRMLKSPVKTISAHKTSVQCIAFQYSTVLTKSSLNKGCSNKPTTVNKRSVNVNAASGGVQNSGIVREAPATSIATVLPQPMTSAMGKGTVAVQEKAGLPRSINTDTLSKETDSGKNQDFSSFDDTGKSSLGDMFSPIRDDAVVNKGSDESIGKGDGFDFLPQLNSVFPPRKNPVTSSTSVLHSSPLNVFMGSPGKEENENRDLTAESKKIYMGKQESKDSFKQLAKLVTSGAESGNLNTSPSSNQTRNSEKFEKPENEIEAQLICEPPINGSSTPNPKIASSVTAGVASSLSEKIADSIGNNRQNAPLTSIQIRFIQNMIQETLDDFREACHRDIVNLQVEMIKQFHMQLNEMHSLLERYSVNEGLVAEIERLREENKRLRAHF
UniProt O75380, whole entry, looked up: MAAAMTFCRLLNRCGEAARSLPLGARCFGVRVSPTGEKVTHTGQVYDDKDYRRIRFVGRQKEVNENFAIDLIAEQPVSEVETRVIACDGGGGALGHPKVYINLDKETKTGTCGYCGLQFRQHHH
UniProt Q92692, whole entry, looked up: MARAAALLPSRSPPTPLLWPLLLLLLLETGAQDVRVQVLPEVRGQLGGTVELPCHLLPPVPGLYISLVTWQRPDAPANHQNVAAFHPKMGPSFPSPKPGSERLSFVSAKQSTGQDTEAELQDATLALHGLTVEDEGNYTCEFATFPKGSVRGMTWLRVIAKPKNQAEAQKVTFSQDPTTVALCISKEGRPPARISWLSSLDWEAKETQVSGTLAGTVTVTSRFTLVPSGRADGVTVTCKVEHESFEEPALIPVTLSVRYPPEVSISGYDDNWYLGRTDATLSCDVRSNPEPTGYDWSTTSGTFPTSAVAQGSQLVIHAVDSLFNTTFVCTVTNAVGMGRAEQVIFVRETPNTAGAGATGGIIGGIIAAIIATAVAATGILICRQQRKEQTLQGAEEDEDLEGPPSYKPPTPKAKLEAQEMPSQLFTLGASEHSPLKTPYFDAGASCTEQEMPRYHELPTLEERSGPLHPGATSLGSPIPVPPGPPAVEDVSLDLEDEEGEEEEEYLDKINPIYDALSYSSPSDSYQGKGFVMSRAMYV
UniProt O14777: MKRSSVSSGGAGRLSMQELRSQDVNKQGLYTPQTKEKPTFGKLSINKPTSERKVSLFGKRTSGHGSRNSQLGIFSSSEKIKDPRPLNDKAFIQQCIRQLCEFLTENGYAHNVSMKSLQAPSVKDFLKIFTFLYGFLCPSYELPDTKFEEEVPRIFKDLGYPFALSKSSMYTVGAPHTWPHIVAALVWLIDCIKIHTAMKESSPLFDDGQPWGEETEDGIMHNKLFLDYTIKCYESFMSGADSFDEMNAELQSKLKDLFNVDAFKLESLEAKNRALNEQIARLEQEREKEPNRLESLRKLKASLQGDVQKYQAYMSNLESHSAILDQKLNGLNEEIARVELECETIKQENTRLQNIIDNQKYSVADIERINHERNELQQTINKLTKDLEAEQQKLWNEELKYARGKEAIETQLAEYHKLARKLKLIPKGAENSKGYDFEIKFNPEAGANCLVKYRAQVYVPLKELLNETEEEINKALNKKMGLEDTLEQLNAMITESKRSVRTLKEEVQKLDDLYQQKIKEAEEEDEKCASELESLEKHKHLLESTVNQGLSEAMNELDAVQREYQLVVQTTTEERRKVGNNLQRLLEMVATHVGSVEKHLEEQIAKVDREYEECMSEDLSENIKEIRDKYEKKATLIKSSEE
UniProt Q9UJ70, whole entry, looked up: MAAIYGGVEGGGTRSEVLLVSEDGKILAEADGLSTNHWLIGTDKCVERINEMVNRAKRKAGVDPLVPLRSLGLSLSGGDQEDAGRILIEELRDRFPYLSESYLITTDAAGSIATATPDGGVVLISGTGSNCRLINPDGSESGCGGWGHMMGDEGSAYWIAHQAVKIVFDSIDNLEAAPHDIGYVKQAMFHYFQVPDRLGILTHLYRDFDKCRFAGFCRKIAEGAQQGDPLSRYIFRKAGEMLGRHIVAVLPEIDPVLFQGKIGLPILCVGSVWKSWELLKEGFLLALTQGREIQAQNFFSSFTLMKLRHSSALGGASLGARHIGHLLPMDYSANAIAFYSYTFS

What was measured:
Experiment in all cases: log2 fold change, soluble protein after heating vs DMSO (PISA); higher = thermal stabilisation; K562 cells, 10 uM, 30 min; active = over 0.2 and 3.5 SD of the protein, either way, in both replicates (recomputed)
[1] = compound: C1=CC=C(C=C1)[C@H](COC2=CC3=C(C=C2)NC(=O)N3)NC(=O)C4=CC=CN(C4=O)CC5=CC(=C(C=C5)F)F
How it was run: (§1)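 Aliquots of K562 cells (2×10^6 cells/mL) treated with 10 μM compound for 30 min were heated for 3 min over 48°C-58°C. After pooling and extraction in PBS with 0.5% NP-40 at 4°C, soluble protein from a 21,000xg, 90 min spin was quantified by TMTpro 16plex LC-MS/MS with channel sums equalised. Thermal stability is expressed against control samples, from duplicates, as a log2 fold change.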

[2] = compound: CC1=C(SC2=C1C(=N[C@H](C3=NN=C(N32)C)CC(=O)N)C4=CC=C(C=C4)Cl)C
How it was run: as §1

[3] = compound: CC1=C2C(=CC=C1)N=C(N(C2=O)C3=CC=CC=C3C)CN4C=NC5=C(N=CN=C54)N
How it was run: as §1

[4] = compound: Cc1sc2c(c1C)C(c1ccc(Cl)cc1)=N[C@@H](CC(=O)OC(C)(C)C)c1nnc(C)n1-2
How it was run: as §1

[5] = compound: c1ccc([C@@H]2C[C@H]2NC2CCNCC2)cc1
How it was run: as §1

Measured: log2 fold change

NDUFA8 (UniProt P51970)
inactive: [1] 0 | [2] -0.011 | [3] 0 | [4] 0.003 | [5] -0.006

NAE1 (UniProt Q13564)
inactive: [1] -0.04 | [2] 0.018 | [3] 0.04 | [4] 0.033 | [5] -0.011

NEDD1 isoform 3 (UniProt Q8NHV4)
inactive: [1] -0.024 | [2] 0.067 | [3] 0.058 | [4] 0.002 | [5] 0.052

NDUFS6 (UniProt O75380)
inactive: [1] 0.072 | [2] -0.111 | [3] -0.04 | [4] 0.045 | [5] 0.076

Random excerpt: 2 records from the list
NDUFA8 (UniProt P51970)
inactive: [1] 0 | [2] -0.011 | [3] 0 | [4] 0.003 | [5] -0.006

NAE1 (UniProt Q13564)
inactive: [1] -0.04 | [2] 0.018 | [3] 0.04 | [4] 0.033 | [5] -0.011

Following part

NECTIN2 isoform 2 (UniProt Q92692)
inactive: [1] 0.179 | [3] -0.03

NDC80 (UniProt O14777)
inactive: [2] -0.127 | [3] 0.021 | [4] 0.128 | [5] -0.06

NA, A0A2R8Y3M9
inactive: [1] -0.093 | [2] -0.069 | [5] 0.161

NDUFV1 (UniProt E9PJL9)
inactive: [1] -0.029 | [3] -0.077 | [4] 0.108

NAGK isoform 2 (UniProt Q9UJ70)
inactive: [1] 0.06 | [2] 0.039 | [3] 0.047 | [4] 0.031 | [5] 0.016

NAA40 (UniProt Q86UY6)
inactive: [2] -0.077 | [3] -0.085 | [4] 0.342 | [5] 0.131
